Test results from patent US8119646B2, “Fungicide hydroximoyl-tetrazole derivatives” (Bayer CropScience AG, priority 2006, dated 2012).
Some results were stated once for a whole list of compounds, not compound by compound. At least one structure is not confirmed: it was looked up by name or label, or the drawing left a doubt.

Columns and labels:
[1] = test system: Pythium ultimum; experiment: Cell test on Pythium ultimum (damping-off); format: cell-based; settings: dose of 6 ppm; OD measurement at 620 nm after 5 days at 20° C. in comparison with a control
[2] = test system: Peronospora parasitica; experiment: In vivo test on Peronospora parasitica (crucifer downy mildew) on cabbage plants; settings: dose of 500 ppm; cabbage plants sprayed preventively 24 hours before contamination; grading 5 days after contamination vs control plants

| Structure (SMILES) | good protection (at least 70%) [1] | good protection (at least 70%) [2] |
| --- | --- | --- |
| CCCCCC(=O)Nc1cccc(CON=C(CCc2ccccc2)n2nnnc2C)n1 [Compound 17] | at least 70% |  |
| Cc1nnnn1C(=NOCc1nsc(N)n1)c1cccc(Cl)c1 [Compound 65, O-(5-Amino-1,2,4-thiadiazol-3-yl)methyl-(3-chlorophenyl-5-methyltetrazol-1-yl)methanone oxime] |  | at least 70% |
| Cn1nnnc1C(=NOCc1nsc(NC(=O)Cc2ccccc2)n1)c1cccc(Cl)c1 [Compound 66] | at least 70% |  |
| CCCCCC(=O)Nc1nc(CON=C(c2cccc(Cl)c2)n2nnnc2C)ns1 [Compound 67, O-(5-n-Pentylcarbonylamino-1,2,4-thiadiazol-3-yl)methyl-(3-chlorophenyl)-(5-methyltetrazol-1-yl)methanone oxime] | at least 70% | at least 70% |
